Reference: patent publication US20250145665A1, “MACROCYCLIC PEPTIDES USEFUL AS MODULATORS OF TNF ALPHA” (Bristol-Myers Squibb Company, priority 2023, published 2025)
Some of these results come from one statement about several compounds together. Starred links: 1 amine or outer side, 2 acyl side, 3 side chain; linkers in the order of their positions; H or OH if unused. Positions of bridges follow the written chain, without caps; N, C: chain ends. Non-standard residues stand in square brackets, D forms with d. Residues, ends and D or L forms follow the SMILES beside them. *: point of attachment. Bip(4'-NHCO-C6H4-3-CH2COOH) = N[C@@H](Cc1ccc(-c2ccc(NC(=O)c3cccc(CC(=O)O)c3)cc2)cc1)C(=O)O; Bip(4'-NHCO-C6H4-4-CH2COOH) = N[C@@H](Cc1ccc(-c2ccc(NC(=O)c3ccc(CC(=O)O)cc3)cc2)cc1)C(=O)O; Bip(4'-(3-HOOC-benzamido)) = N[C@@H](Cc1ccc(-c2ccc(NC(=O)c3cccc(C(=O)O)c3)cc2)cc1)C(=O)O; dArg(Nω-CH2C6H4-3-CH2Gua) = N=C(N)NCc1cccc(CNC(=N)NCCC[C@@H](N)C(=O)O)c1; dArg(ω-(2S)-2,3-diOHpropyl) = N=C(NCCC[C@@H](N)C(=O)O)NC[C@H](O)CO; Bip(4'-NH) = O=C([C@H](Cc1ccc(-c2ccc(N[*:3])cc2)cc1)N[*:1])[*:2]; dArg(ω-(3-HO-benzyl)) = N=C(NCCC[C@@H](N)C(=O)O)NCc1cccc(O)c1; Bip(4'-CONHMe) = CNC(=O)c1ccc(-c2ccc(C[C@H](N)C(=O)O)cc2)cc1; Bip(4'-COOH) = N[C@@H](Cc1ccc(-c2ccc(C(=O)O)cc2)cc1)C(=O)O; X36 = N=C(NCCC[C@@H](N[*:1])C(=O)[*:2])NCc1cccc(C(=O)O)c1; Ala(imidazol-2-yl) = N[C@@H](Cc1ncc[nH]1)C(=O)O; Ala(morpholin-4-yl) = N[C@@H](CN1CCOCC1)C(=O)O; Benzoyl(3-OCH2COOH) = O=C(O)COc1cccc(C(=O)*)c1; Phe(3-CONH2) = NC(=O)c1cccc(C[C@H](N)C(=O)O)c1; Bip = N[C@@H](Cc1ccc(-c2ccccc2)cc1)C(=O)O; 2Pal = N[C@@H](Cc1ccccn1)C(=O)O; Cha = N[C@@H](CC1CCCCC1)C(=O)O; Sar = CNCC(=O)O

Amino acid sequences for entries named in this document (tags omitted). Residues count along the entry.
UniProt P01375, 77-233 limits assumed: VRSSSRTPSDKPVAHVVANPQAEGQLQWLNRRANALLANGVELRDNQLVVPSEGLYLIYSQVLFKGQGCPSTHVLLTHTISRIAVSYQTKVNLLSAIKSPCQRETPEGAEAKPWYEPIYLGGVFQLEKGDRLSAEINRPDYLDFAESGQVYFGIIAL

Molecular target: TNFα (Homo sapiens, UniProt P01375)
Experiment: TNF-Induced HEK-Blue Assay
Format: cell-based
Details: summary statement for all examples; read-out: IC50 values measured in the TNF induced HEK-Blue assay

IC50, ≤ 25 µM:
CC[C@H](C)[C@@H]1NC(=O)[C@@H](CCCNC(=N)N)NC(=O)[C@H](CC(=O)O)NC(=O)[C@H](Cc2cnc[nH]2)NC(=O)CN(C)C(=O)[C@H](Cc2ccc(-c3ccc(NC(=O)c4cccc(CC(=O)O)c4)cc3)cc2)NC(=O)[C@H](Cc2ccc(-c3ccc(C(=O)NC)cc3)cc2)NC(=O)[C@H](CC2CCCCC2)NC(=O)CSC[C@@H](C(=O)NCC(N)=O)NC(=O)[C@H](CC(C)C)NC(=O)[C@H](Cc2cnc[nH]2)NC(=O)[C@H](C(C)C)NC(=O)[C@@H]2CCCN2C1=O [Example 527] ({CH2CO}-[Cha][Bip(4'-CONHMe)][Bip(4'-NHCO-C6H4-3-CH2COOH)][Sar]HD[dR]IPVHLCG-NH2; thioether N-13)
CC[C@H](C)[C@@H]1NC(=O)[C@@H](CCCNC(=N)N)NC(=O)[C@H](CC(=O)O)NC(=O)[C@H](Cc2cnc[nH]2)NC(=O)CN(C)C(=O)[C@H](Cc2ccc(-c3ccc(NC(=O)c4ccc(CC(=O)O)cc4)cc3)cc2)NC(=O)[C@H](Cc2ccc(-c3ccc(C(=O)NC)cc3)cc2)NC(=O)[C@H](CC2CCCCC2)NC(=O)CSC[C@@H](C(=O)NCC(N)=O)NC(=O)[C@H](CC(C)C)NC(=O)[C@H](Cc2cnc[nH]2)NC(=O)[C@H](C(C)C)NC(=O)[C@@H]2CCCN2C1=O [Example 528] ({CH2CO}-[Cha][Bip(4'-CONHMe)][Bip(4'-NHCO-C6H4-4-CH2COOH)][Sar]HD[dR]IPVHLCG-NH2; thioether N-13)
CC[C@H](C)[C@@H]1NC(=O)[C@@H](CCCNC(=N)N)NC(=O)[C@H](CC(=O)O)NC(=O)[C@H](Cc2cnc[nH]2)NC(=O)CN(C)C(=O)[C@H](Cc2ccc(-c3ccc(NC(=O)c4cccc(C(=O)O)c4)cc3)cc2)NC(=O)[C@H](Cc2ccc(-c3ccc(C(=O)O)cc3)cc2)NC(=O)[C@H](CC2CCCCC2)NC(=O)CSC[C@@H](C(=O)NCC(N)=O)NC(=O)[C@H](CC(C)C)NC(=O)[C@H](Cc2cnc[nH]2)NC(=O)[C@H](C(C)C)NC(=O)[C@@H]2CCCN2C1=O [Example 530] ({CH2CO}-[Cha][Bip(4'-COOH)][Bip(4'-(3-HOOC-benzamido))][Sar]HD[dR]IPVHLCG-NH2; thioether N-13)
CC(C)C[C@@H]1NC(=O)[C@H](CCCNC(=N)N)NC(=O)[C@H](C(C)C)NC(=O)[C@@H]2CCCN2C(=O)[C@H](C(C)C)NC(=O)[C@@H](CCCNC(=N)NC[C@H](O)CO)NC(=O)[C@H](CC(=O)O)NC(=O)[C@@H]2CCCN2C(=O)CN(C)C(=O)[C@H](Cc2ccc(-c3ccc(NC(=O)c4cccc(CC(=O)O)c4)cc3)cc2)NC(=O)[C@H](Cc2ccc(-c3ccccc3)cc2)NC(=O)[C@H](CN2CCOCC2)NC(=O)CSC[C@@H](C(=O)NCC(N)=O)NC1=O [Example 537] ({CH2CO}-[Ala(morpholin-4-yl)][Bip][Bip(4'-NHCO-C6H4-3-CH2COOH)][Sar]PD[dArg(ω-(2S)-2,3-diOHpropyl)]VPVRLCG-NH2; thioether N-13)
CC(C)C[C@@H]1NC(=O)[C@H](CCCNC(=N)N)NC(=O)[C@H](C(C)C)NC(=O)[C@@H]2CCCN2C(=O)[C@H](C(C)C)NC(=O)[C@@H](CCCNC(=N)NC[C@H](O)CO)NC(=O)[C@H](CC(=O)O)NC(=O)[C@@H]2CCCN2C(=O)CN(C)C(=O)[C@H](Cc2ccc(-c3ccc(NC(=O)c4cccc(OCC(=O)O)c4)cc3)cc2)NC(=O)[C@H](Cc2ccc(-c3ccccc3)cc2)NC(=O)[C@H](CN2CCOCC2)NC(=O)CSC[C@@H](C(=O)NCC(N)=O)NC1=O [Example 538] ({CH2CO}-[Ala(morpholin-4-yl)][Bip][Bip(4'-NH)](Benzoyl(3-OCH2COOH))[Sar]PD[dArg(ω-(2S)-2,3-diOHpropyl)]VPVRLCG-NH2; thioether N-13)
CC(C)C[C@@H]1NC(=O)[C@H](CCCNC(=N)N)NC(=O)[C@H](C(C)C)NC(=O)[C@@H]2CCCN2C(=O)[C@H](C(C)C)NC(=O)[C@@H](CCCNC(=N)NCc2cccc(C(=O)O)c2)NC(=O)[C@H](CC(=O)O)NC(=O)[C@@H]2CCCN2C(=O)CN(C)C(=O)[C@H](Cc2ccc(-c3ccc(NC(=O)c4cccc(CC(=O)O)c4)cc3)cc2)NC(=O)[C@H](Cc2ccc(-c3ccccc3)cc2)NC(=O)[C@H](CN2CCOCC2)NC(=O)CSC[C@@H](C(=O)NCC(N)=O)NC1=O [Example 543] ({CH2CO}-[Ala(morpholin-4-yl)][Bip][Bip(4'-NHCO-C6H4-3-CH2COOH)][Sar]PD[X36]VPVRLCG-NH2; thioether N-13)
CC(C)C[C@@H]1NC(=O)[C@H](CCCNC(=N)N)NC(=O)[C@H](C(C)C)NC(=O)[C@@H]2CCCN2C(=O)[C@H](C(C)C)NC(=O)[C@@H](CCCNC(=N)NCc2cccc(C(=O)O)c2)NC(=O)[C@H](CC(=O)O)NC(=O)[C@@H]2CCCN2C(=O)CN(C)C(=O)[C@H](Cc2ccc(-c3ccc(NC(=O)c4cccc(OCC(=O)O)c4)cc3)cc2)NC(=O)[C@H](Cc2ccc(-c3ccccc3)cc2)NC(=O)[C@H](CN2CCOCC2)NC(=O)CSC[C@@H](C(=O)NCC(N)=O)NC1=O [Example 544] ({CH2CO}-[Ala(morpholin-4-yl)][Bip][Bip(4'-NH)](Benzoyl(3-OCH2COOH))[Sar]PD[X36]VPVRLCG-NH2; thioether N-13)
CC(C)C[C@@H]1NC(=O)[C@H](Cc2cccc(C(N)=O)c2)NC(=O)[C@H](C(C)C)NC(=O)[C@@H]2CCCN2C(=O)[C@H](C(C)C)NC(=O)[C@@H](CCCNC(=N)NC[C@H](O)CO)NC(=O)[C@H](CC(=O)O)NC(=O)[C@H](Cc2ccc(O)cc2)NC(=O)CN(C)C(=O)[C@H](Cc2ccc(-c3ccc(NC(=O)c4ccc(CC(=O)O)cc4)cc3)cc2)NC(=O)[C@H](Cc2ccc(-c3ccccc3)cc2)NC(=O)[C@H](CN2CCOCC2)NC(=O)CSC[C@@H](C(=O)NCC(N)=O)NC1=O [Example 548] ({CH2CO}-[Ala(morpholin-4-yl)][Bip][Bip(4'-NHCO-C6H4-4-CH2COOH)][Sar]YD[dArg(ω-(2S)-2,3-diOHpropyl)]VPV[Phe(3-CONH2)]LCG-NH2; thioether N-13)
CC(C)C[C@@H]1NC(=O)[C@H](Cc2cccc(C(N)=O)c2)NC(=O)[C@H](C(C)C)NC(=O)[C@@H]2CCCN2C(=O)[C@H](C(C)C)NC(=O)[C@@H](CCCNC(=N)NC[C@H](O)CO)NC(=O)[C@H](CC(=O)O)NC(=O)[C@H](Cc2ccc(O)cc2)NC(=O)CN(C)C(=O)[C@H](Cc2ccc(-c3ccc(NC(=O)c4cccc(CC(=O)O)c4)cc3)cc2)NC(=O)[C@H](Cc2ccc(-c3ccccc3)cc2)NC(=O)[C@H](CN2CCOCC2)NC(=O)CSC[C@@H](C(=O)NCC(N)=O)NC1=O [Example 549] ({CH2CO}-[Ala(morpholin-4-yl)][Bip][Bip(4'-NHCO-C6H4-3-CH2COOH)][Sar]YD[dArg(ω-(2S)-2,3-diOHpropyl)]VPV[Phe(3-CONH2)]LCG-NH2; thioether N-13)
CC(C)C[C@@H]1NC(=O)[C@H](Cc2cccc(C(N)=O)c2)NC(=O)[C@H](C(C)C)NC(=O)[C@@H]2CCCN2C(=O)[C@H](C(C)C)NC(=O)[C@@H](CCCNC(=N)NC[C@H](O)CO)NC(=O)[C@H](CC(=O)O)NC(=O)[C@H](Cc2ccc(O)cc2)NC(=O)CN(C)C(=O)[C@H](Cc2ccc(-c3ccc(NC(=O)c4cccc(OCC(=O)O)c4)cc3)cc2)NC(=O)[C@H](Cc2ccc(-c3ccccc3)cc2)NC(=O)[C@H](CN2CCOCC2)NC(=O)CSC[C@@H](C(=O)NCC(N)=O)NC1=O [Example 550] ({CH2CO}-[Ala(morpholin-4-yl)][Bip][Bip(4'-NH)](Benzoyl(3-OCH2COOH))[Sar]YD[dArg(ω-(2S)-2,3-diOHpropyl)]VPV[Phe(3-CONH2)]LCG-NH2; thioether N-13)
CC(C)C[C@@H]1NC(=O)[C@H](Cc2ncc[nH]2)NC(=O)[C@H](C(C)C)NC(=O)[C@@H]2CCCN2C(=O)[C@H](C(C)C)NC(=O)[C@@H](CCCNC(=N)NCc2cccc(O)c2)NC(=O)[C@H](CC(=O)O)NC(=O)[C@H](Cc2ccccn2)NC(=O)CN(C)C(=O)[C@H](Cc2ccc(-c3ccc(NC(=O)c4cccc(CC(=O)O)c4)cc3)cc2)NC(=O)[C@H](Cc2ccc(-c3ccc(C(=O)O)cc3)cc2)NC(=O)[C@H](CC2CCCCC2)NC(=O)CSC[C@@H](C(=O)NCC(N)=O)NC1=O [Example 553] ({CH2CO}-[Cha][Bip(4'-COOH)][Bip(4'-NHCO-C6H4-3-CH2COOH)][Sar][2Pal]D[dArg(ω-(3-HO-benzyl))]VPV[Ala(imidazol-2-yl)]LCG-NH2; thioether N-13)
CC(C)C[C@@H]1NC(=O)[C@H](Cc2ncc[nH]2)NC(=O)[C@H](C(C)C)NC(=O)[C@@H]2CCCN2C(=O)[C@H](C(C)C)NC(=O)[C@@H](CCCNC(=N)NCc2cccc(O)c2)NC(=O)[C@H](CC(=O)O)NC(=O)[C@H](Cc2ccccn2)NC(=O)CN(C)C(=O)[C@H](Cc2ccc(-c3ccc(NC(=O)c4ccc(CC(=O)O)cc4)cc3)cc2)NC(=O)[C@H](Cc2ccc(-c3ccc(C(=O)O)cc3)cc2)NC(=O)[C@H](CC2CCCCC2)NC(=O)CSC[C@@H](C(=O)NCC(N)=O)NC1=O [Example 554] ({CH2CO}-[Cha][Bip(4'-COOH)][Bip(4'-NHCO-C6H4-4-CH2COOH)][Sar][2Pal]D[dArg(ω-(3-HO-benzyl))]VPV[Ala(imidazol-2-yl)]LCG-NH2; thioether N-13)
CC(C)C[C@@H]1NC(=O)[C@H](Cc2ncc[nH]2)NC(=O)[C@H](C(C)C)NC(=O)[C@@H]2CCCN2C(=O)[C@H](C(C)C)NC(=O)[C@@H](CCCNC(=N)NCc2cccc(O)c2)NC(=O)[C@H](CC(=O)O)NC(=O)[C@H](Cc2ccccn2)NC(=O)CN(C)C(=O)[C@H](Cc2ccc(-c3ccc(NC(=O)c4cccc(OCC(=O)O)c4)cc3)cc2)NC(=O)[C@H](Cc2ccc(-c3ccc(C(=O)O)cc3)cc2)NC(=O)[C@H](CC2CCCCC2)NC(=O)CSC[C@@H](C(=O)NCC(N)=O)NC1=O [Example 555] ({CH2CO}-[Cha][Bip(4'-COOH)][Bip(4'-NH)](Benzoyl(3-OCH2COOH))[Sar][2Pal]D[dArg(ω-(3-HO-benzyl))]VPV[Ala(imidazol-2-yl)]LCG-NH2; thioether N-13)
CC(C)C[C@@H]1NC(=O)[C@H](Cc2ncc[nH]2)NC(=O)[C@H](C(C)C)NC(=O)[C@@H]2CCCN2C(=O)[C@H](C(C)C)NC(=O)[C@@H](CCCNC(=N)NCc2cccc(CNC(=N)N)c2)NC(=O)[C@H](CC(=O)O)NC(=O)[C@H](Cc2ccccn2)NC(=O)CN(C)C(=O)[C@H](Cc2ccc(-c3ccc(NC(=O)c4cccc(CC(=O)O)c4)cc3)cc2)NC(=O)[C@H](Cc2ccc(-c3ccc(C(=O)O)cc3)cc2)NC(=O)[C@H](CC2CCCCC2)NC(=O)CSC[C@@H](C(=O)NCC(N)=O)NC1=O [Example 558] ({CH2CO}-[Cha][Bip(4'-COOH)][Bip(4'-NHCO-C6H4-3-CH2COOH)][Sar][2Pal]D[dArg(Nω-CH2C6H4-3-CH2Gua)]VPV[Ala(imidazol-2-yl)]LCG-NH2; thioether N-13)
